Measured values published in paper PMC2661055, “The C-terminal sequence of the large hepatitis delta antigen is variable but retains the ability to bind clathrin” (Virology Journal, 2009).
No constants are given. Whether binding was seen depends on the method and setting. In cells and extracts the contact can be indirect. Some entries that bind do so weakly or less than the wild type. Sequences can lack the tags named with a protein.

By UniProt entry, the sequences of proteins in these tests, tags left out.
UniProt Q00610: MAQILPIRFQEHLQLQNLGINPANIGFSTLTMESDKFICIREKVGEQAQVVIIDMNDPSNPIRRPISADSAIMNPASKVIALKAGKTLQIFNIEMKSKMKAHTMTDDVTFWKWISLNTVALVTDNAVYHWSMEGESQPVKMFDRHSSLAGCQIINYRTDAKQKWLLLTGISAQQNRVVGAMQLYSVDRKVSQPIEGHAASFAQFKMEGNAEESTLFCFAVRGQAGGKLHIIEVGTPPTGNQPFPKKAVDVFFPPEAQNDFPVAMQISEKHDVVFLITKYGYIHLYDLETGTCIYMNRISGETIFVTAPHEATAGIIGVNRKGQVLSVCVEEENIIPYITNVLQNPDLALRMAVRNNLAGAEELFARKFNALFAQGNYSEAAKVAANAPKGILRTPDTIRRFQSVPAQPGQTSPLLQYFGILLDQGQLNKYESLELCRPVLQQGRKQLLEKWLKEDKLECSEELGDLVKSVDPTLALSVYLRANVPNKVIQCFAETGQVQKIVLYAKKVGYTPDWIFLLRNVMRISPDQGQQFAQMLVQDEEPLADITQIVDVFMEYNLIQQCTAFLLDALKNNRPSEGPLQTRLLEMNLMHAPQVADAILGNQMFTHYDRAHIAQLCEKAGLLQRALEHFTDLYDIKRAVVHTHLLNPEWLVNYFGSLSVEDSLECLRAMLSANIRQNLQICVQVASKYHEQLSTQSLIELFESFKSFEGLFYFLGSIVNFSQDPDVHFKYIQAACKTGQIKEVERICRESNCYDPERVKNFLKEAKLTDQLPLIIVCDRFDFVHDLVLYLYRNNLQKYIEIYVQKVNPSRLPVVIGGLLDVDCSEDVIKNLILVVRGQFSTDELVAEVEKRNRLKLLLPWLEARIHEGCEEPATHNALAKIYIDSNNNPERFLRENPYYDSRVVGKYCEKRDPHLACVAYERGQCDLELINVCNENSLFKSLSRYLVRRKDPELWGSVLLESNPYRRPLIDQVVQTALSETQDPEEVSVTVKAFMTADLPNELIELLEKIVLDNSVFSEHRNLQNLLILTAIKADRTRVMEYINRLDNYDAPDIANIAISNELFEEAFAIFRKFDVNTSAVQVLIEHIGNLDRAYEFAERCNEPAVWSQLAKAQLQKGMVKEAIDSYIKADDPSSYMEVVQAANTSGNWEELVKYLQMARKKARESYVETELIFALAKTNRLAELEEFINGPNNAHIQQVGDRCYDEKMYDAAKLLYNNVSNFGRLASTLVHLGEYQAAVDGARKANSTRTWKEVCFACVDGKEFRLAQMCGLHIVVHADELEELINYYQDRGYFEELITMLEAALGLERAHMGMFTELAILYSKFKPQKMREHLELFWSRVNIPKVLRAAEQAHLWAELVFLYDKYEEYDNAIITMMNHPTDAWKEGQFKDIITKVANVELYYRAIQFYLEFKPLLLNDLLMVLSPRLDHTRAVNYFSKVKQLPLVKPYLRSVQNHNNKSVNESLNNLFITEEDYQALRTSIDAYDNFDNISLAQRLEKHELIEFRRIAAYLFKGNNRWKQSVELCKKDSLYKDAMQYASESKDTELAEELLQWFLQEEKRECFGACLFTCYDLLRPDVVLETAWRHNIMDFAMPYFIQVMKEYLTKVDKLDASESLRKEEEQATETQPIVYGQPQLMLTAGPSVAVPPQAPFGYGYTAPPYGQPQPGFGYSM

Biological target: T1, GST-LDIII_(C(198–210)) (GST fused to amino acids 198-210 of genotype III LDAg) (hepatitis delta virus genotype III (Peru-1 strain))
T1 sequence: FTPPPPGYYWVPG
Assay: pull-down; GST or GST-LD_(C(198–210)) on Glutathione Sepharose 4B beads incubated with HuH-7 cell lysate for 16 h at 4°C; three washes with 0.05% Tween-20 in PBS; blot for CHC; mean of three experiments; only the target purified

In the case of “clathrin heavy chain (full-length, endogenous in HuH-7 cells) (from UniProt Q00610 1-1675)”, the binding is reported as “binds”.
